Results are given in words; binding and its absence hold for the method and conditions named. In cells and extracts the contact can be indirect. A result given as binding can be weak or reduced; the word gives no strength.
Biological target: Uev1A (ubiquitin-conjugating enzyme variant 1A), HA-tagged (human) (UniProt Q13404)
Experiment: co-IP; MDA-MB-231 cell extracts expressing HA-tagged UEV1A or UEV1A-F38E, immunoprecipitated with an anti-HA monoclonal antibody and Protein-G beads, 4°C overnight, washed 4 times with cold NP40 lysis buffer; western blot with anti-Ubc13 and anti-HA monoclonal antibodies

Sequences of proteins named here, by UniProt entry; tags and fusion partners are left off. A change or cut given only in a name is not applied to a line headed by its entry.
UniProt Q13404: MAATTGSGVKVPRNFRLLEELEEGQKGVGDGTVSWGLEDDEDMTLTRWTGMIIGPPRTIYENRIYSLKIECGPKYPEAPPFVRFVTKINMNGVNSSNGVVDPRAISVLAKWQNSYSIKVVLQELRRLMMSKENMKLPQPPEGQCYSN
UniProt P61088: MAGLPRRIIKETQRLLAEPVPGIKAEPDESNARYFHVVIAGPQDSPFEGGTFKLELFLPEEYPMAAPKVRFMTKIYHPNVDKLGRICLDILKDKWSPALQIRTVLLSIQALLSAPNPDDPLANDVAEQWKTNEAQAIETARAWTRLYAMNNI

With “Ubc13 (from UniProt P61088 1-152) (enzyme)” the binding was “binds”.

From article PMC4223564
